Reference: publication PMC7461561

Chains of the proteins cited; added tags and fusions are not shown.
UniProt O60260: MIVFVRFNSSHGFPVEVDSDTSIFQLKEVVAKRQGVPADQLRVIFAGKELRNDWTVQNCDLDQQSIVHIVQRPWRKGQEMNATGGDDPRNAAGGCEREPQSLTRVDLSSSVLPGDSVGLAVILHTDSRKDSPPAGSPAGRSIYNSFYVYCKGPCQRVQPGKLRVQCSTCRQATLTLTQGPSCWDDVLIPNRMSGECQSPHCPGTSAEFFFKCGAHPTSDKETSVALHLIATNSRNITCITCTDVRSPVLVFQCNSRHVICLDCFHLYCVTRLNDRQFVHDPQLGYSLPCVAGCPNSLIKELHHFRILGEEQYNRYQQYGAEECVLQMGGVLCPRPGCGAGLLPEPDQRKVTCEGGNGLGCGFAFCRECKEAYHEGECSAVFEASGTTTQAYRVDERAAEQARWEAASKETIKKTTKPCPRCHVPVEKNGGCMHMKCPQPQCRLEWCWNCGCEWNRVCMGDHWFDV

B1: Platelet glycoprotein IX (protein, UniProt P14770 17-177)
chain: TKDCPSPCTCRALETMGLWVDCRGHGLTALPALPARTRHLLLANNSLQSVPPGAFDHLPQLQTLDVTQNPWHCDCSLTYLRLWLEDRTPEALLQVRCASPSLAAHGPLGRLTGYQLGSCGWQLQASWVRPGVLWDVALVAVAALGLALLAGLLCATTEALD
B2: Peroxisomal multifunctional enzyme type 2 (protein, UniProt P51659 1-736)
chain: MGSPLRFDGRVVLVTGAGAGLGRAYALAFAERGALVVVNDLGGDFKGVGKGSLAADKVVEEIRRRGGKAVANYDSVEEGEKVVKTALDAFGRIDVVVNNAGILRDRSFARISDEDWDIIHRVHLRGSFQVTRAAWEHMKKQKYGRIIMTSSASGIYGNFGQANYSAAKLGLLGLANSLAIEGRKSNIHCNTIAPNAGSRMTQTVMPEDLVEALKPEYVAPLVLWLCHESCEENGGLFEVGAGWIGKLRWERTLGAIVRQKNHPMTPEAVKANWKKICDFENASKPQSIQESTGSIIEVLSKIDSEGGVSANHTSRATSTATSGFAGAIGQKLPPFSYAYTELEAIMYALGVGASIKDPKDLKFIYEGSSDFSCLPTFGVIIGQKSMMGGGLAEIPGLSINFAKVLHGEQYLELYKPLPRAGKLKCEAVVADVLDKGSGVVIIMDVYSYSEKELICHNQFSLFLVGSGGFGGKRTSDKVKVAVAIPNRPPDAVLTDTTSLNQAALYRLSGDWNPLHIDPNFASLAGFDKPILHGLCTFGFSARRVLQQFADNDVSRFKAIKARFAKPVYPGQTLQTEMWKEGNRIHFQTKVQETGDIVISNAYVDLAPTSGTSAKTPSEGGKLQSTFVFEEIGRRLKDIGPEVVKKVNAVFEWHITKGGNIGAKWTIDLKSGSGKVYQGPAKGAADTTIILSDEDFMEVVLGKLDPQKAFFSGRLKARGNIMLSQKLQMILKDYAKL
B3: Peroxiredoxin-1 (protein, UniProt Q06830 1-199)
chain: MSSGNAKIGHPAPNFKATAVMPDGQFKDISLSDYKGKYVVFFFYPLDFTFVCPTEIIAFSDRAEEFKKLNCQVIGASVDSHFCHLAWVNTPKKQGGLGPMNIPLVSDPKRTIAQDYGVLKADEGISFRGLFIIDDKGILRQITVNDLPVGRSVDETLRLVQAFQFTDKHGEVCPAGWKPGSDTIKPDVQKSKEYFSKQK
B4: E3 ubiquitin-protein ligase HECTD3 (protein, UniProt Q5T447 1-861)
chain: MAGPGPGAVLESPRQLLGRVRFLAEAARSLRAGRPLPAALAFVPREVLYKLYKDPAGPSRVLLPVWEAEGLGLRVGAAGPAPGTGSGPLRAARDSIELRRGACVRTTGEELCNGHGLWVKLTKEQLAEHLGDCGLQEGWLLVCRPAEGGARLVPIDTPNHLQRQQQLFGVDYRPVLRWEQVVDLTYSHRLGSRPQPAEAYAEAVQRLLYVPPTWTYECDEDLIHFLYDHLGKEDENLGSVKQYVESIDVSSYTEEFNVSCLTDSNADTYWESDGSQCQHWVRLTMKKGTIVKKLLLTVDTTDDNFMPKRVVVYGGEGDNLKKLSDVSIDETLIGDVCVLEDMTVHLPIIEIRIVECRDDGIDVRLRGVKIKSSRQRELGLNADLFQPTSLVRYPRLEGTDPEVLYRRAVLLQRFIKILDSVLHHLVPAWDHTLGTFSEIKQVKQFLLLSRQRPGLVAQCLRDSESSKPSFMPRLYINRRLAMEHRACPSRDPACKNAVFTQVYEGLKPSDKYEKPLDYRWPMRYDQWWECKFIAEGIIDQGGGFRDSLADMSEELCPSSADTPVPLPFFVRTANQGNGTGEARDMYVPNPSCRDFAKYEWIGQLMGAALRGKEFLVLALPGFVWKQLSGEEVSWSKDFPAVDSVLVKLLEVMEGMDKETFEFKFGKELTFTTVLSDQQVVELIPGGAGIVVGYGDRSRFIQLVQKARLEESKEQVAAMQAGLLKVVPQAVLDLLTWQELEKKVCGDPEVTVDALRKLTRFEDFEPSDSRVQYFWEALNNFTNEDRSRFLRFVTGRSRLPARIYIYPDKLGYETTDALPESSTCSSTLFLPHYASAKVCEEKLRYAAYNCVAIDTDMSPWEE
B5: Regulator of G-protein signaling 18 (protein, UniProt Q9NS28 1-235)
chain: METTLLFFSQINMCESKEKTFFKLIHGSGKEETSKEAKIRAKEKRNRLSLLVQKPEFHEDTRSSRSGHLAKETRVSPEEAVKWGESFDKLLSHRDGLEAFTRFLKTEFSEENIEFWIACEDFKKSKGPQQIHLKAKAIYEKFIQTDAPKEVNLDFHTKEVITNSITQPTLHSFDAAQSRVYQLMEQDSYTRFLKSDIYLDLMEGRPQRPTNLRRRSRSFTCNEFQDVQSDVAIWL
B6: Glutathione peroxidase 1 (protein, UniProt P07203 1-203)
chain: MCAARLAAAAAAAQSVYAFSARPLAGGEPVSLGSLRGKVLLIENVASLUGTTVRDYTQMNELQRRLGPRGLVVLGFPCNQFGHQENAKNEEILNSLKYVRPGGGFEPNFMLFEKCEVNGAGAHPLFAFLREALPAPSDDATALMTDPKLITWSPVCRNDVAWNFEKFLVGPDGVPLRRYSRRFQTIDIEPDIEALLSQGPSCA
B7: Acyl-Coenzyme A thioesterase 13 (protein, UniProt Q9NPJ3 1-140)
chain: MTSMTQSLREVIKAMTKARNFERVLGKITLVSAAPGKVICEMKVEEEHTNAIGTLHGGLTATLVDNISTMALLCTERGAPGVSVDMNITYMSPAKLGEDIVITAHVLKQGKTLAFTSVDLTNKATGKLIAQGRHTKHLGN
B8: Ubiquitin-Like protein 4A (protein, UniProt P11441 1-157)
chain: MQLTVKALQGRECSLQVPEDELVSTLKQLVSEKLNVPVRQQRLLFKGKALADGKRLSDYSIGPNSKLNLVVKPLEKVLLEEGEAQRLADSPPPQVWQLISKVLARHFSAADASRVLEQLQRDYERSLSRLTLDDIERLASRFLHPEVTETMEKGFSK
B9: ATP synthase protein 8 (protein, UniProt P03928 1-68)
chain: MPQLNTTVWPTMITPMLLTLFLITQLKMLNTNYHLPPSPKPMKMKNYNKPWEPKWTKICSLHSLPPQS
B10: Thioredoxin (protein, UniProt P10599 1-105)
chain: MVKQIESKTAFQEALDAAGDKLVVVDFSATWCGPCKMIKPFFHSLSEKYSNVIFLEVDVDDCQDVASECEVKCMPTFQFFKKGQKVGEFSGANKEKLEATINELV

Target: Parkin (human (endogenous in platelets)) (UniProt O60260)
Test: affinity purification with mass spectrometry; IP with Parkin-specific antibodies from human DM platelet lysate; silver-stained gel, 10 bands enriched in DM against HC cut out; in-gel trypsin digestion, LC-MS/MS, Mascot search

Row | Binder | binding
1 | B1 | binds
2 | B2 | binds
3 | B3 | binds
4 | B4 | binds
5 | B5 | binds
6 | B6 | binds
7 | B7 | binds
8 | B8 | binds
9 | B9 | binds
10 | B10 | binds

No constants are given. Whether binding was seen depends on the method and setting. In cells and extracts the contact can be indirect. Here binding means that the protein was enriched with, or labelled near, the bait; the list need not be complete.
